Mtb heat-shock: 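Assay on Mycobacterium tuberculosis, filed only as a heat shock assay from Cornell; the read-out is not stated. The concentration is filed as 10 mM, unlikely as a test dose, so the dose is not known. The record gives no direction; compounds that gave an IC50 in retests scored well above the rest, so higher reads as stronger inhibition. Of about 69,000 compounds tested this way, about 930 (1.4%) reached 50% or more in at least one test.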
Mtb growth Cornell: 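Whole-cell assay for inhibitors of Mycobacterium tuberculosis growth, labelled Cornell in the record; the read-out is not stated. The concentration is filed as 10 mM, unlikely as a test dose, so the dose is not known. Higher means stronger inhibition (inferred from two other growth screens of the library). Size under these conditions: about 53,000 compounds, about 900 of them at 50% or above in at least one test.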
LdMetRS: 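Methionyl-tRNA synthetase (putative), Leishmania donovani (UniProt E9BF75). Primary screen of methionyl-tRNA synthetase; the read-out is not stated. The test concentration is not given. Values are per cent inhibition. Size under these conditions: about 68,000 compounds, about 24 of them at 50% or above in at least one test.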

Protein sequences, listed by entry. Tags and fused reporters are not part of them.
UniProt E9BF75, entry or part of it: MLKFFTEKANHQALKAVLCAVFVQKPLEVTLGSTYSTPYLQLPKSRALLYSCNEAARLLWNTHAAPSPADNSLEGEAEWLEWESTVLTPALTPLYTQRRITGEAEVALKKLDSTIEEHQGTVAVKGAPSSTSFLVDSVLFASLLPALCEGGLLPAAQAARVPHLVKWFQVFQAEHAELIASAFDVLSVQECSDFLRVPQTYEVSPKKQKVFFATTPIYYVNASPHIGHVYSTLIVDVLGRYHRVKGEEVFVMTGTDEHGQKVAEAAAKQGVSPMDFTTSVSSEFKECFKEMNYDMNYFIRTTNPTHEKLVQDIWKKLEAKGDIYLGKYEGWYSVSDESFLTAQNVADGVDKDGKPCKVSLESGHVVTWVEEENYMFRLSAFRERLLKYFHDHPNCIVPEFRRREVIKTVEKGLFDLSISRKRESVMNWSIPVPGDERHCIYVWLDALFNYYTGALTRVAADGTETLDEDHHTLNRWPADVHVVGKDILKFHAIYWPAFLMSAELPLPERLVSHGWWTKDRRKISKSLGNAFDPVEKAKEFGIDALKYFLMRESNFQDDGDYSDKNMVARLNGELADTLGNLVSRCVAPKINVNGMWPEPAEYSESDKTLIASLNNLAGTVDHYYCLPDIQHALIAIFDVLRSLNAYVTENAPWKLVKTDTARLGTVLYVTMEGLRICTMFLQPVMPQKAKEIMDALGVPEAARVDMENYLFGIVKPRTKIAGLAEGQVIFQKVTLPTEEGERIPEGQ

Results are percentages, as filed. The record does not define 0% and 100%; most values in the screen are far below 50% and negative numbers occur (in some assays of this library far below -100). This is an unselected part of the compounds tested. A dash means the value is not listed here; it may have been measured.

SMILES,Mtb heat-shock,Mtb growth Cornell,LdMetRS
O=C(O)c1cnc2c(Br)cccc2c1O,-19.16%,21.5%,7.311%
CCC(=O)N1CCN(C(=O)Cn2cccn2)CC1,62.88%,-,4.762%
OC[C@@H]1CCCN1Cc1cn(C2CCN(C3CCCC3)CC2)nn1,-11.17%,16.52%,14.29%
CC(C)c1nnc2n1CCN(C(=O)c1ccc3cc[nH]c3c1)C2,-13.25%,-,18.88%
O=C(NC1CC1)C1CCCN(c2cc(-n3cncn3)ncn2)C1 (centres unmarked),-21.94%,-39.66%,5.036%
CN(CCSc1ccccc1)C(=O)C(c1cccnc1)N1CCOCC1 (centres unmarked),-27.77%,-22.99%,3.147%
Cc1ccc(CNCc2cccc3cccnc23)c(OC2CCOC2)c1 (centres unmarked),87.35%,9.708%,16.67%
COc1cc(CNCC(O)c2ccccc2)cc2c1OCO2 (centres unmarked),-,-,18.44%
Cc1nc(CN2CCO[C@@H]3CNCC[C@@H]3C2)cs1,-,-,4.575%
Cc1ccccc1-n1c(O)cc(C)c(C#N)c1=O,3.434%,-,-28.73%
CN(Cc1ccco1)Cc1cncc2c1CCN(Cc1ccoc1)C2.Cl.Cl.Cl,-8.81%,-1.225%,-
CSc1cccc(CNC(=O)C2CC(=O)N(CCN(C)C)C2)c1 (centres unmarked),-4.752%,4.895%,11.71%
O=C(O)C(F)(F)F.[H][C@]12CCN(c3ncccn3)[C@@]1([H])CC[C@@H](COCc1csc(C)n1)O2,3.819%,-,-
Cn1cncc1CN1CCCC1c1cncc(Oc2ccc(Cl)cc2)n1 (centres unmarked),-34.75%,-20.26%,9.677%
CCS(=O)(=O)N1CCN(CCOC)c2ncccc2C1,7.581%,2.8%,12.02%
[H][C@@]12CC[C@H](Oc3cccc(F)c3)[C@]1([H])CN(C(=O)c1ccnn1C)C2,0.7317%,11.44%,-
COc1ccc(C)cc1NC(=O)c1coc(C)n1,6.529%,8.355%,6.162%
CCc1n[nH]c(C2CN(C(=O)c3ccc(Cl)cn3)CCO2)n1 (centres unmarked),2.353%,-,11.36%
COc1c(C)cnc(CN2CCCC2Cn2nc(C)nc2C)c1C (centres unmarked),4.497%,-,16.06%
CC(C)NC(=O)CC1COC2(CCN(Cc3ccccc3)CC2)C1 (centres unmarked),-,-,10.44%
Cc1nn(C)c(C)c1S(=O)(=O)NCC1(C(N)=O)CCOCC1,12.29%,-3.55%,15.24%
CCOC(=O)NC(CNC(=O)CCc1ccccn1)CC(C)C (centres unmarked),-6.458%,20.36%,13.75%
COCCN1CCC2(C1)CN(c1ncc(F)cn1)C2.O=C(O)C(F)(F)F,0.9433%,-2.445%,-
Cc1cccc(CN2C[C@@H](C)[C@@]3(CCN(CC(=O)N(C)C)C3=O)C2)c1.O=C(O)C(F)(F)F,-6.766%,20.22%,-
O=C(Cn1ccc2ncccc2c1=O)N1CCCCC1,-138.6%,-,20.24%
CC(=O)N1CC2(CCN(Cc3ccc(Cl)cc3)C2)Cc2ccccc21 (centres unmarked),-28.06%,-,11.43%
Cc1ncsc1CCN(C)C(=O)c1ccc(CN2CCCCC2)cc1,-2.779%,19.69%,16.72%
Cc1ccccc1CS(=O)(=O)c1nnc(N2CCOCC2)s1,7.72%,-8.511%,13.31%
CCn1nc(C)c2ncnc(NCCCn3ccnc3)c21,-19.6%,-,16.83%
CN(Cc1cccnc1)CC1(O)CCCN(CC(C)(C)C)C1=O (centres unmarked),8.686%,22.32%,7.082%
Cc1csc(N2CCN(C(=O)CCn3cncn3)CC2)n1,15.34%,-62.96%,12.68%
CCc1noc(C(C)N2CCC(C)CC2)n1 (centres unmarked),-12.98%,-92.65%,21.68%
O=C(O)C(F)(F)F.O=C(O)C(F)(F)F.c1cc(CN2CCc3ncc(CN4CCOCC4)n3CC2)cs1,-12.27%,-22.34%,-
COc1cc(OC)c(C2Nc3cc(Cl)ccc3C3=NCCN32)cc1OC (centres unmarked),1.664%,-,22.65%
Cc1csc(N(C)C(=O)C2CC(=O)N(c3ccccc3Cl)C2)n1 (centres unmarked),0.2962%,22.62%,5.974%
CCn1ccnc1CN1CCN(CC(=O)NC(=O)NC2CC2)CC1,8.626%,-,11.22%
Cn1ccnc1C(=O)N1CCC2(CCN2Cc2ccc(F)cc2)C1.O=C(O)C(F)(F)F (centres unmarked),-9.777%,-3.061%,-
Clc1ccc(-n2cc(CNC3CCc4ncnn4C3)cn2)cc1 (centres unmarked),0.8702%,-,15.97%
Cn1ccnc1CNC(=O)Nc1ccc(OC2CCC2)c(F)c1,-3.532%,6.268%,-0.9639%
Cc1[nH]ccc1C(=O)N(Cc1ccc(O)cc1)CC1CC1,3.808%,103.8%,9.424%
Cc1nccn1C1CCCN(C(=O)CCOCC(F)(F)F)C1 (centres unmarked),-2.965%,-,7.368%
Cc1csc(N2CCN(C(=O)C3(C#N)CCCCC3)CC2)n1,-27.31%,-,14.75%
O=C(NC(Cc1ccsc1)c1nccs1)C1CC1 (centres unmarked),-16.41%,1.52%,14.58%

Repeated from the top, 2 entries:

SMILES	Mtb heat-shock	Mtb growth Cornell	LdMetRS
O=C(O)c1cnc2c(Br)cccc2c1O	-19.16%	21.5%	7.311%
CCC(=O)N1CCN(C(=O)Cn2cccn2)CC1	62.88%	-	4.762%

From ChEMBL document CHEMBL3988442, “University of Dundee, Small-Polar-MMV Screening Library” (2021).